The other results are listed elsewhere or left out. The data scatter; read single values as rough.
target: T1, NUP205 C1855 (UniProt Q92621); experiment: log2 mean competition ratio of IA-DTB cysteine labelling (DMSO/compound) (log2 ratio); higher = stronger cysteine engagement by compound; conditions: 50 µM; treatment time: 4 h; cell line lysate: HEK293T
T1 sequence (whole entry): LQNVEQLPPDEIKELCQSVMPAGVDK
Description: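 IA-DTB competitive cysteine chemoproteomics in HEK293T RIPA lysate. Lysates were treated with compound 29 or 30 at 50 or 200 µM for 4 h, then IA-DTB (500 µM, 1 h), trypsin-digested, NeutrAvidin-enriched and analysed by diaPASEF. Competition ratio = intensity DMSO / intensity compound (n=4 treated, n=64 DMSO); binding: mean log2 CR ≥ 1 and p ≤ 0.05 plus QC filters. Target is the cysteine site.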

Sequences of proteins named here, by UniProt entry; tags and fusion partners are left off. A change or cut given only in a name is not applied to a line headed by its entry.
UniProt Q92621: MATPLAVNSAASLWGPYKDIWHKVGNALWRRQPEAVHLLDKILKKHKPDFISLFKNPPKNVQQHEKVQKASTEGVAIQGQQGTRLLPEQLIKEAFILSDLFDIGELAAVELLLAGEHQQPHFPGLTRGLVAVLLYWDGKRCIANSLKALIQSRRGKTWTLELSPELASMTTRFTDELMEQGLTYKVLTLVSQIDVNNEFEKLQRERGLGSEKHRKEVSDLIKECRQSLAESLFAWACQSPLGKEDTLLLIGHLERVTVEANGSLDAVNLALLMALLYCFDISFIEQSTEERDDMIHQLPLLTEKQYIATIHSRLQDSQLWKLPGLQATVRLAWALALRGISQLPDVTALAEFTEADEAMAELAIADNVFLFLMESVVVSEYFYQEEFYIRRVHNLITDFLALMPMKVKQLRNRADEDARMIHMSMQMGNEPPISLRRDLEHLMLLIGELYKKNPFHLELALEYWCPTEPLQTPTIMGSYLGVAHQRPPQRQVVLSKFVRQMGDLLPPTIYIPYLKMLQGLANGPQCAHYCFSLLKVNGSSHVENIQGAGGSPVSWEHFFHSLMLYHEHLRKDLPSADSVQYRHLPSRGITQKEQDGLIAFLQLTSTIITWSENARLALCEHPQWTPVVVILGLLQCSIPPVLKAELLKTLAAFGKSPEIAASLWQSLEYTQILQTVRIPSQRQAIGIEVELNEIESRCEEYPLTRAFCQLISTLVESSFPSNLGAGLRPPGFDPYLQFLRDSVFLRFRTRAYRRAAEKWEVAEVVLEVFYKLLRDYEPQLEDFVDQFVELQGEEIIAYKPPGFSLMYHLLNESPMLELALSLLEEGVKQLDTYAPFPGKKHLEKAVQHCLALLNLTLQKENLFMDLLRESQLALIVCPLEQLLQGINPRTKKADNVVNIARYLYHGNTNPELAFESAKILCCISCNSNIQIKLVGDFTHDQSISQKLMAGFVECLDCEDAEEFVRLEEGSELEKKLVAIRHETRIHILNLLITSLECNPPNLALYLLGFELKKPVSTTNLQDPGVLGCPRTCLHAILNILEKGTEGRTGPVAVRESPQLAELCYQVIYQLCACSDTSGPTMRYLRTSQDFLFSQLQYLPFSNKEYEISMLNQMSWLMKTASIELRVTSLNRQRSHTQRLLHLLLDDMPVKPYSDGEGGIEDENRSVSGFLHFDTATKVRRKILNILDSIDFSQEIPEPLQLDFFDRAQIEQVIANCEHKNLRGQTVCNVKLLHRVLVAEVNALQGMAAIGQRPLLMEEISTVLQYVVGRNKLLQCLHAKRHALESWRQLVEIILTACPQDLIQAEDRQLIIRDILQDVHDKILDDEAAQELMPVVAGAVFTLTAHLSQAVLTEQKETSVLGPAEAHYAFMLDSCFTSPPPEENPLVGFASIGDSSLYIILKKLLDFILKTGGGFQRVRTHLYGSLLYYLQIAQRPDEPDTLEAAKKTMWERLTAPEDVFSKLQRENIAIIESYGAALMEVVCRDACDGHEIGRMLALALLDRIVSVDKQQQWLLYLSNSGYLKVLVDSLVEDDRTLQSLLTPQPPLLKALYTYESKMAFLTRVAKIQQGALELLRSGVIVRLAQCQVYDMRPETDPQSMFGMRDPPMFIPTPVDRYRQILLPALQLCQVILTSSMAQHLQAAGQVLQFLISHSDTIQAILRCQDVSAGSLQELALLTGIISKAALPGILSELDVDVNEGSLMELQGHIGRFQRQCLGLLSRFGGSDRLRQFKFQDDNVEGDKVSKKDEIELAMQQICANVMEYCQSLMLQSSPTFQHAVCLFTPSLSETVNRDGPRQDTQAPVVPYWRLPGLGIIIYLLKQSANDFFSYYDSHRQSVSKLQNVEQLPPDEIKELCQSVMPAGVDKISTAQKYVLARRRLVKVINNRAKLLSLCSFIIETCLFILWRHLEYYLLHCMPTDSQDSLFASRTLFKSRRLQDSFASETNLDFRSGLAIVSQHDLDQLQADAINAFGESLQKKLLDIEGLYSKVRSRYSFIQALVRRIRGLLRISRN

Row | Structure (SMILES) | log2 mean competition ratio
1 | O=C(CCl)N[C@@H]1CCCc2ccccc21 | -0.274
2 | O=C(CCl)N[C@H]1CCCc2ccccc21 | 0.21

same assay, conditions: 200 µM; treatment time: 4 h; cell line lysate: HEK293T

Row | Structure (SMILES) | log2 mean competition ratio
3 | O=C(CCl)N[C@@H]1CCCc2ccccc21 | 0.0564
4 | O=C(CCl)N[C@H]1CCCc2ccccc21 | -0.251

Reference: the supplement of paper PMC11732987, “Enantioselective OTUD7B fragment discovery through chemoproteomics screening and high-throughput optimisation” (Communications Chemistry, 2025)
